Measurements: publication PMC1896016
No constants are given. Whether binding was seen depends on the method and setting. Binding seen in cells or lysates may run through a third protein. Binding calls can cover weak binding; strength is not graded here. Sequences can lack the tags named with a protein.

Molecular target: T1, HCF-Flag (Drosophila), overexpressed in transgenic embryos (Drosophila) (UniProt Q9V4C8)
T1 sequence: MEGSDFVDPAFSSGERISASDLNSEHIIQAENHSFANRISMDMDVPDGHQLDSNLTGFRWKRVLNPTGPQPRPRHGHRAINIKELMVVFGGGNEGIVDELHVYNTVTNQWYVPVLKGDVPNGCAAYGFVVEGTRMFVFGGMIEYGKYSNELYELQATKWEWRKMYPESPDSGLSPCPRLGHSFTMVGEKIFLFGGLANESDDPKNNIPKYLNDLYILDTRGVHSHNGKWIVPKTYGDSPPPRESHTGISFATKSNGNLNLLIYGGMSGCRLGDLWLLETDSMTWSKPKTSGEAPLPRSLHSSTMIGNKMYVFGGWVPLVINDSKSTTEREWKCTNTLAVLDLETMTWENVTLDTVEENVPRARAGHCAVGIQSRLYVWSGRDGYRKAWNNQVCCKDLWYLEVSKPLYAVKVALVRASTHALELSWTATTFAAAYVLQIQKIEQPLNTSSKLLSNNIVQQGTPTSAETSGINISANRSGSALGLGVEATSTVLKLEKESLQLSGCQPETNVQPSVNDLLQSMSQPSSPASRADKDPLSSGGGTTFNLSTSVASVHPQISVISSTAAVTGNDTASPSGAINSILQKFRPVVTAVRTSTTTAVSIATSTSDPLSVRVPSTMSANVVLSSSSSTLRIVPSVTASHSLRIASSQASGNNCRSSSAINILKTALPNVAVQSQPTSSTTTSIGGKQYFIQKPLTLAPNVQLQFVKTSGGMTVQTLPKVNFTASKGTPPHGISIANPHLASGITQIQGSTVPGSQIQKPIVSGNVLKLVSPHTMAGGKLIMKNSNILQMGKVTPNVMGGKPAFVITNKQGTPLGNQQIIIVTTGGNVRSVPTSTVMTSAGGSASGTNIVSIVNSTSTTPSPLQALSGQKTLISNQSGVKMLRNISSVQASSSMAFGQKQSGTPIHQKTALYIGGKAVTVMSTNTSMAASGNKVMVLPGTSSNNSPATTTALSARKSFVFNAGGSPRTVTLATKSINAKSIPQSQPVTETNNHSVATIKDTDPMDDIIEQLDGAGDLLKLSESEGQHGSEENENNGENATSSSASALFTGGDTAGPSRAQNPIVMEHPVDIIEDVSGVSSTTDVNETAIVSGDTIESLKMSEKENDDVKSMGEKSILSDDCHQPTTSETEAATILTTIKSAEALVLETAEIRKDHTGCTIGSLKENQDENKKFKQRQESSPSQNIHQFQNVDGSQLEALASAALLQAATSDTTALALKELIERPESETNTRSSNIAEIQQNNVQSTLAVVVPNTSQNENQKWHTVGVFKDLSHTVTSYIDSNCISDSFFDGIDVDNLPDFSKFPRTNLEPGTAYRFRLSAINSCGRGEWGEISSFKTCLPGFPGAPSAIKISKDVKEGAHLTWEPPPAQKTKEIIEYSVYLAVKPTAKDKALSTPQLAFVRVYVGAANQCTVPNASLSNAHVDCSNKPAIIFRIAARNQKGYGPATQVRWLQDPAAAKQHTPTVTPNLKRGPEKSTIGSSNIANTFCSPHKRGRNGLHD
Experiment: co-IP; extract of 0-16 h transgenic embryos overexpressing HCF-Flag (da-Gal4); anti-Flag M2 beads; 50 mM Tris pH 8, 200 mM NaCl, 5 mM EDTA, 0.5% NP40; wt embryos as negative control

binding: binds weakly
Substance: Sin3A, endogenous in Drosophila embryos
